Laboratory results taken from PMC9028839.

By UniProt entry, the sequences of proteins in these tests, tags left out. Where a name states a change or a piece, a line headed by the entry shows the natural chain unless it says otherwise.
UniProt F1SED4: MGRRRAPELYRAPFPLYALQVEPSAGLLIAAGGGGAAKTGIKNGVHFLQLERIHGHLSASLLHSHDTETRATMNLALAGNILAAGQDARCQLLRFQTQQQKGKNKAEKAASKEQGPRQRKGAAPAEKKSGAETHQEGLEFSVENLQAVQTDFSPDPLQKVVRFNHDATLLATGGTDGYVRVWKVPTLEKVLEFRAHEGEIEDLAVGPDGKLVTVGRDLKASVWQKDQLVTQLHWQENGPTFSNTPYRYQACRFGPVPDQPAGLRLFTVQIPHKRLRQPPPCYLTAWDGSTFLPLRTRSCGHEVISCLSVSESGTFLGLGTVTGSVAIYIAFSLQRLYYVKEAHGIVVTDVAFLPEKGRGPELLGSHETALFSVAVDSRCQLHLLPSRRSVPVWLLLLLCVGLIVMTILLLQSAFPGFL

Biological target: Sec12 from swine, FLAG-tagged (vTF7-3 system) (swine) (UniProt F1SED4)
Assay: co-IP

B1: FMDV 3A protein of strain O/TAW/97 (protein, UniProt Q6PMV1 1426-1568)
chain: ISIPSQKSVLYFLIEKGQHEAAIEFFEGMVHDSIKEELRPLIQQTSFVKRAFKRLKENFEVVALCLTLLANIVIMLRQARKRYQSVDDPLDGDVTLGDAEKNPLETSGASAVGFRERSPTEQGTREDANAEPVVFGREQPRAE
With B1 the binding was “binds”.

Results are given in words; binding and its absence hold for the method and conditions named. In cells and extracts the contact can be indirect. Binding calls can cover weak binding; strength is not graded here.
